Laboratory results: PubChem BioAssay AID1259405 (NCATS, 2018)
This is one part, drawn at random, of about 50,000 reagents tested. About 4,000 of all reagents (8%) count as active. 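Mouse siRNA library applied to hamster cells; one well for each siRNA.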 The numbers tell different reagents against one gene apart.

Assay: 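Silenced genes that increase secreted GFP made by CHO cells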 (primary screen)
Cells: Chinese hamster CHO-K1 ovary cells with stable secreted eGFP expression
Reagents: single siRNA against mouse genes, 0.8 pmol siRNA per well (2 µl of 400 nM stock)
Time to read-out: 3 days
Detection: 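Percent of the per-plate non-targeting control median for intracellular GFP per well by laser scanning cytometry and for cell viability by ATP luminescence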
Scale: GFP, % of control: higher = more GFP per well, higher productivity; viability (ATP), % of control: higher = more viable cells (more ATP)
Call rule: 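Called active when intracellular GFP, relative to negative control, is at or above 120%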

After knock-down of Ap3d1 (adaptor-related protein complex 3, delta 1 subunit) #1 the results were GFP, % of control 9.21; viability (ATP), % of control 7.64; inactive.
For Ap3d1 (adaptor-related protein complex 3, delta 1 subunit) #2 the deposit lists GFP, % of control 72.3; viability (ATP), % of control 75.5; inactive.
Silencing of Ap3d1 (adaptor-related protein complex 3, delta 1 subunit) #3 resulted in: GFP, % of control 76.8; viability (ATP), % of control 48.7; inactive.
With knock-down of Rangap1 (RAN GTPase activating protein 1) #1, the record shows GFP, % of control 95.5; viability (ATP), % of control 95.9; inactive.
Against Rangap1 (RAN GTPase activating protein 1) #2 the deposit lists GFP, % of control 41.2; viability (ATP), % of control 45.3; inactive.
For Rangap1 (RAN GTPase activating protein 1) #3 the deposit lists GFP, % of control 47.6; viability (ATP), % of control 68.8; inactive.
With knock-down of Nit2 (nitrilase family, member 2) #1, the screen gave GFP, % of control 101; viability (ATP), % of control 88; inactive.
Nit2 (nitrilase family, member 2) #2 scored GFP, % of control 71.6; viability (ATP), % of control 68.6; inactive.
Against Nit2 (nitrilase family, member 2) #3, the entry reads GFP, % of control 101; viability (ATP), % of control 77.7; inactive.
For Fam3c (FAM3 metabolism regulating signaling molecule C) #1, the values are GFP, % of control 70.4; viability (ATP), % of control 81.2; inactive.
Fam3c (FAM3 metabolism regulating signaling molecule C) #2 gave GFP, % of control 59.8; viability (ATP), % of control 55; inactive.
Fam3c (FAM3 metabolism regulating signaling molecule C) #3 showed GFP, % of control 83; viability (ATP), % of control 96.3; inactive.
Maoa (monoamine oxidase A) #1 scored GFP, % of control 107; viability (ATP), % of control 79.1; inactive.
After knock-down of Maoa (monoamine oxidase A) #2, the record shows GFP, % of control 87.1; viability (ATP), % of control 59.7; inactive.
After knock-down of Maoa (monoamine oxidase A) #3 the results were GFP, % of control 43.6; viability (ATP), % of control 51.3; inactive.
For Or8c9 (olfactory receptor family 8 subfamily C member 9) #1, the entry reads GFP, % of control 68.6; viability (ATP), % of control 79; inactive.
Or8c9 (olfactory receptor family 8 subfamily C member 9) #2 gave GFP, % of control 62.1; viability (ATP), % of control 79.8; inactive.
After knock-down of Or8c9 (olfactory receptor family 8 subfamily C member 9) #3, the record shows GFP, % of control 45.6; viability (ATP), % of control 84.2; inactive.
Silencing of Mrpl36 (mitochondrial ribosomal protein L36) #1 gave: GFP, % of control 78.1; viability (ATP), % of control 74.2; inactive.
Depletion of Mrpl36 (mitochondrial ribosomal protein L36) #2 gave: GFP, % of control 53; viability (ATP), % of control 22.7; inactive.
Silencing of Mrpl36 (mitochondrial ribosomal protein L36) #3 resulted in: GFP, % of control 71.4; viability (ATP), % of control 77.1; inactive.
Against Umps (uridine monophosphate synthetase) #1, the entry reads GFP, % of control 65.8; viability (ATP), % of control 53.1; inactive.
Knock-down of Umps (uridine monophosphate synthetase) #2 came out at: GFP, % of control 121; viability (ATP), % of control 120; active.
Against Umps (uridine monophosphate synthetase) #3, the values are GFP, % of control 76; viability (ATP), % of control 80.9; inactive.

Reformatted: 6 of the entries above
gene symbol	reagent no.	GFP, % of control	viability (ATP), % of control	call
Rangap1 (RAN GTPase activating protein 1)	3	47.6	68.8	inactive
Nit2 (nitrilase family, member 2)	1	101	88	inactive
Nit2 (nitrilase family, member 2)	2	71.6	68.6	inactive
Nit2 (nitrilase family, member 2)	3	101	77.7	inactive
Fam3c (FAM3 metabolism regulating signaling molecule C)	1	70.4	81.2	inactive
Fam3c (FAM3 metabolism regulating signaling molecule C)	2	59.8	55	inactive

The list goes on.
After knock-down of Adcyap1r1 (adenylate cyclase activating polypeptide 1 receptor 1) #1, the record shows GFP, % of control 141; viability (ATP), % of control 81.1; active.
After knock-down of Adcyap1r1 (adenylate cyclase activating polypeptide 1 receptor 1) #2, the screen gave GFP, % of control 116; viability (ATP), % of control 99; inactive.
With knock-down of Adcyap1r1 (adenylate cyclase activating polypeptide 1 receptor 1) #3, the screen gave GFP, % of control 51; viability (ATP), % of control 63.8; inactive.
After knock-down of Mmd2 (monocyte to macrophage differentiation-associated 2) #1 the results were GFP, % of control 146; viability (ATP), % of control 89.2; active.
Mmd2 (monocyte to macrophage differentiation-associated 2) #2 gave GFP, % of control 51.5; viability (ATP), % of control 52.4; inactive.
With knock-down of Mmd2 (monocyte to macrophage differentiation-associated 2) #3, the screen gave GFP, % of control 87; viability (ATP), % of control 75.7; inactive.
After knock-down of Dipk1c (divergent protein kinase domain 1C) #1, the record shows GFP, % of control 62.1; viability (ATP), % of control 60; inactive.
After knock-down of Dipk1c (divergent protein kinase domain 1C) #2 the results were GFP, % of control 68.4; viability (ATP), % of control 94.6; inactive.
Depletion of Dipk1c (divergent protein kinase domain 1C) #3 gave: GFP, % of control 73.9; viability (ATP), % of control 85.9; inactive.
Knock-down of Cbln1 (cerebellin 1 precursor protein) #1 resulted in: GFP, % of control 60.5; viability (ATP), % of control 62.5; inactive.
Cbln1 (cerebellin 1 precursor protein) #2 scored GFP, % of control 49.3; viability (ATP), % of control 61.8; inactive.
With knock-down of Cbln1 (cerebellin 1 precursor protein) #3, the record shows GFP, % of control 62.8; viability (ATP), % of control 67.3; inactive.
With knock-down of Arhgap19 (Rho GTPase activating protein 19) #1, the record shows GFP, % of control 33.1; viability (ATP), % of control 57.7; inactive.
Arhgap19 (Rho GTPase activating protein 19) #2 gave GFP, % of control 79.3; viability (ATP), % of control 91.7; inactive.
Arhgap19 (Rho GTPase activating protein 19) #3 scored GFP, % of control 49; viability (ATP), % of control 51.6; inactive.
With knock-down of Gm4841 (predicted gene 4841) #1, the screen gave GFP, % of control 61.7; viability (ATP), % of control 74.7; inactive.
Gm4841 (predicted gene 4841) #2 gave GFP, % of control 73.9; viability (ATP), % of control 48.7; inactive.
Against Gm4841 (predicted gene 4841) #3, the entry reads GFP, % of control 68.8; viability (ATP), % of control 51.9; inactive.
With knock-down of Plet1 (placenta expressed transcript 1) #1, the screen gave GFP, % of control 67.8; viability (ATP), % of control 85; inactive.
For Plet1 (placenta expressed transcript 1) #2, the values are GFP, % of control 86; viability (ATP), % of control 70.6; inactive.
For Plet1 (placenta expressed transcript 1) #3, the entry reads GFP, % of control 58.3; viability (ATP), % of control 46; inactive.
Knock-down of Cldn16 (claudin 16) #1 resulted in: GFP, % of control 94.3; viability (ATP), % of control 86.9; inactive.
Cldn16 (claudin 16) #2 showed GFP, % of control 79.1; viability (ATP), % of control 75; inactive.
Cldn16 (claudin 16) #3 scored GFP, % of control 110; viability (ATP), % of control 117; inactive.
With knock-down of Cpt2 (carnitine palmitoyltransferase 2) #1 the results were GFP, % of control 117; viability (ATP), % of control 92.2; inactive.
With knock-down of Cpt2 (carnitine palmitoyltransferase 2) #2, the screen gave GFP, % of control 106; viability (ATP), % of control 164; inactive.
Cpt2 (carnitine palmitoyltransferase 2) #3 gave GFP, % of control 134; viability (ATP), % of control 95.9; active.
After knock-down of Rasgrp3 (RAS, guanyl releasing protein 3) #1, the record shows GFP, % of control 93.3; viability (ATP), % of control 99; inactive.
After knock-down of Rasgrp3 (RAS, guanyl releasing protein 3) #2 the results were GFP, % of control 301; viability (ATP), % of control 83.9; active.
Knock-down of Rasgrp3 (RAS, guanyl releasing protein 3) #3 came out at: GFP, % of control 70.3; viability (ATP), % of control 80.2; inactive.
